Patent US9133230B2, “Hydrazone derivatives having potent antitumor activity toward multi-drug resistant tumor cells” (THE UNITED STATES OF AMERICA AS REPRESENTED BY THE …, priority 2011, dated 2015)
Some results were stated once for a whole list of compounds, not compound by compound.

Test system: human colorectal carcinoma HT29
Experiment: Western blot of signal transduction pathways in HT29 cells
Type: cell-based
Details: HT29, IC50 dose
Method: The newly synthesized hydrazones RPC038, RPC042, and RPC046 had shown anti-tumor activity against 60 human cancer cell lines panel of the National Cancer Institute and on multi-drug resistant cell lines. The present studies were conducted to evaluate their action on signal transduction pathways in human colorectal carcinoma HT29. All the three compounds were examined at their IC50 doses.
Human colorectal carcinoma HT29 cells were obtained from the National Cancer Institute, Bethesda, Md., USA, and maintained in 5% CO2 at 37° C. in minimum essential media (Life Technologies, Inc., Grand Island, N.Y., USA) supplemented with 1% penicillin, streptomycin (Invitrogen, Carlsbad, Calif., USA), and 10% fetal bovine serum for optimal growth. HT29 cells (1×10^6) were plated in […], and 24 h later, fresh media was added and treated with the RPC038, RPC042 and RPC046 for indicated time points (2, 4, 8, 16 and 24 h). The cells were then washed with cold phosphate buffered saline (PBS) and taken in 1 ml PBS on ice and centrifuged at 4° C. […] Blots were blocked, incubated with primary anti-pMEK, pERK, pJNK, pcjun, ERK, JNK, Cjun, Caspase-8, Caspase-6, PARP cleavage, or GAPDH antibodies (Cell Signaling Technology, Danvers, Mass.) and then conjugated with a secondary anti-mouse or an anti-rabbit horseradish […] antibody, and detected by ChemiDoc™ XRS+ System with Image Lab™ Software.

OC[C@H]1OC(n2cnc3c(NN=Cc4ccccn4)ncnc32)[C@H](O)[C@@H]1O (stereo partly shown) [I-9]
PARP cleavage (time): ≥ 16 h
